Out of some 31,000 sequences screened, about 1,400 (4.5%) were called active.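 The calls were made as follows: active = median seed-adjusted z-score above 1 or below -1; inactive = the rest.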 Some of the results follow.

A short description of the experiment: Novel Modifiers of Survival Motor Neuron (SMN) Protein: Gene Identification via Genome-wide siRNA Screen.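 Also: luminescence tracks full-length SMN protein made from the SMN2 reporter.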 Conditions: HEK293T SMN2-luciferase reporter, siRNA knockdown, 72 h; actives lie on both sides. Put shortly:
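siRNA screen, 10418 genes ×3 siRNAs; 1 pmol/well, lipid reverse transfection into HEK293T SMN2-luc reporter line. 72 h, 37 °C, 5% CO2; ONE-Glo readout. Data: neg-ctrl normalized, log10, MAD; hit = MAD >1.0 or < -1.0.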
Take GUCUCUCAGCUUACGUAUATT against SNX25: the median seed-adjusted z-score was inactive: -0.26.
On to CCACCUCACAGAUCGCCUATT against SOX10, for which the median seed-adjusted z-score is inactive: -0.255.
With GCACAAGUAAAAUAGACAATT against GABRA4, the median seed-adjusted z-score is inactive: 0.549.
Take GGACCUAUGAGCAACGAAATT against ATP1A4: the median seed-adjusted z-score was inactive: 0.116.
The same measure for GGAUGACCAGAAUAGCGAATT against ALKBH1: inactive: -0.087; for GGACUAAAACUUUAAACUATT against POU4F2: active: 1.46.
Take CCAUUGAAGUGGUUAAGAATT against CCNE2: the median seed-adjusted z-score is inactive: 0.801.
In the case of GGCUACUUUCCCAAUAUUUTT against LBX2, the median seed-adjusted z-score is inactive: 0.538.
For the sequence CGACUUUGCAGUGCCGAAATT against ATP10A, the median seed-adjusted z-score was inactive: -0.435.
Consider CAGCCUCAGUGGAUUCAGATT against SPRYD5, for which the median seed-adjusted z-score is inactive: 0.151.
As for GGCUGGUUCUGACUCACUUTT against ELAC1, the median seed-adjusted z-score was inactive: 0.967.
Take GGACGUGGACCAUUACUGUTT against LITAF: the median seed-adjusted z-score was inactive: 0.0771.
Consider CAGUUGUGGUAAAAUUAAATT against LSM6, for which the median seed-adjusted z-score is inactive: -0.0501.
As for GGGUUGGUGUGAUUGGAGUTT against LOC647743, the median seed-adjusted z-score was inactive: -0.203.
On to AGCUGGGCUUUAUCGUGGATT against P2RX2, for which the median seed-adjusted z-score was inactive: 0.0454.
In the case of CAGUAUCUAUUCACAAUGATT against TRNT1, the median seed-adjusted z-score was inactive: 0.142.
For the sequence GAAGUGACGAGAAUUUACATT against PSMAL, the median seed-adjusted z-score was inactive: 0.525.
In the case of CAAACGAGAAUAUGAGAAATT against UBE2B, the median seed-adjusted z-score was inactive: 0.333.
Turning to GGAGGAAAUUCUCAAUGCUTT against LILRB5, the median seed-adjusted z-score is inactive: 0.834.
The same measure for GGACAAUUGGUUGCAGACATT against EPHB6: inactive: -0.0275.
In the case of AGGACAAAAGGAACCCGGATT against GIPC1, the median seed-adjusted z-score is inactive: 0.
As to CCACUAGAAUUGAUUAGAATT against SLC25A40, the median seed-adjusted z-score is inactive: 0.414.
As to GGAUACUAAUGAUUCCUGATT against KCNS1, the median seed-adjusted z-score was inactive: -0.167.
As for GUACUACUUCUACUGGAAATT against TNFAIP6, the median seed-adjusted z-score is inactive: 0.
ACAUCGCCCUCAAACGGGATT against ACTL7A: the median seed-adjusted z-score is active: 1.1.
For the sequence GGUGGAGUAUACUGAAGAATT against TPH2, the median seed-adjusted z-score is inactive: 0.275.
As for GGUGCAAGCAGGUUACGAATT against BLVRB, the figure is inactive: 0.0133; as for CGAUUUUGAUUAUCCCUAATT against HIVEP2, inactive: 0.294.
Take CAAUAGGUUUUAUCUACUATT against ZNF121: the median seed-adjusted z-score is inactive: 0.0687.
GAUCUGAUGUAGACCAAGATT against RNF14: the median seed-adjusted z-score is inactive: 0.296.
As for CCAGGCUAUCUUUCCGAUATT against PTPN3, the figure is inactive: -0.535; as for GGCUGGUUGUUGAUAGCAUTT against KCNH1, inactive: -0.0859.
For GGAGUAAUGAGAUAGUACATT against ARAP3, the median seed-adjusted z-score was inactive: -0.00876.
For the sequence GCGGGAACAUACAAUGUAATT against INPP5B, the median seed-adjusted z-score was inactive: 0.
Regarding GCAACAGUAUUUCGGUAUATT against CHEK1, the median seed-adjusted z-score is active: -5.1.
The same measure for GGAGUAAACCUCACUGACATT against TMPRSS5: active: 1.25; for CAUGAAUCGUUCCAACAAATT against GTF2H3: inactive: 0.356; for CAACUAUAGUGCUCCCAGUTT against ZFP36L1: inactive: -0.933.
On to GGACAUUCUUAAACGACUUTT against DIAPH1, for which the median seed-adjusted z-score is inactive: 0.145.
For the sequence GGGAGUCUUUCUUCGGGAATT against ABCG1, the median seed-adjusted z-score is inactive: -0.609.
The same measure for GAAAUACGCAGGAAGGAAATT against TMPRSS9: inactive: 0.106; for CGCCCUUGGUUUUAGCAGATT against ABO: inactive: 0.
The same measure for GGACAAGAUUCACCAACAATT against GIP: inactive: 0.
Regarding GCUACGAUAUUUUCUUAUUTT against TRDMT1, the median seed-adjusted z-score was inactive: 0.
As for GACGAUGAAUGAAAAGGCATT against NRBP1, the median seed-adjusted z-score was active: -1.13.
CCUGCUAUGUCUUCGGUUATT against MED13: the median seed-adjusted z-score was inactive: -0.469.
With GACUUUGCCUUGAUUCACATT against PRPS1, the median seed-adjusted z-score was inactive: 0.034.
As to CAACAGCGAUUGGAAUGGATT against UGDH, the median seed-adjusted z-score was inactive: 0.674.
As to CCUUUAUGCCUGAUCCUCATT against SULT1C3, the median seed-adjusted z-score was inactive: -0.731.
GCACCUAGAGGUUACCAAATT against RUFY2: the median seed-adjusted z-score was inactive: 0.
As for GCUGAACUCUUGAGCCUAATT against TRIM27, the figure is inactive: -0.378; as for GCCUUGACCCUGAGUGUAATT against CASZ1, inactive: 0.263.
Consider ACCAAGUACGCAAACUUUUTT against ST3GAL3, for which the median seed-adjusted z-score was inactive: -0.133.
For GCAUUCAUCCUGUUAGUUUTT against RAET1E, the median seed-adjusted z-score was inactive: -0.616.
Consider CCGAAUAUCUCUCACACGATT against ZNF667, for which the median seed-adjusted z-score was inactive: -0.101.
As to CAGCAGGACCUGUUCCUCATT against NXNL1, the median seed-adjusted z-score is inactive: 0.334.
For GCUCCGGUCUGUUGUCACATT against LYPLA2, the median seed-adjusted z-score was inactive: 0.28.
Take CAACAACAAUCAUAGCUGATT against SSBP1: the median seed-adjusted z-score was inactive: -0.456.
As for CGAAACUACCGAUUCCACATT against PLA2G3, the figure is inactive: 0.543.
Regarding GGAGGUUCCCGGUAUCACATT against ELA1, the median seed-adjusted z-score was inactive: 0.687.
As for GGACACCUGUGAACCGCAUTT against ARID3A, the median seed-adjusted z-score is active: -1.11.
Regarding UCAAAGCUUUUGACCAGAUTT against SLC5A10, the median seed-adjusted z-score is inactive: 0.669.
With GCACGGACCUAGCUAUGAUTT against TC2N, the median seed-adjusted z-score is inactive: 0.461.
Regarding GAAAUAGCAUCAGCAGAUATT against LBR, the median seed-adjusted z-score is inactive: 0.303.
The same measure for GGAUCAUCAUGGAAUUGUATT against PTK2B: active: 1.71; for CGAACUCGCUAGUGACAUATT against NRAP: inactive: -0.205.
Consider AGCAAUUCACAAAAUGUGATT against LALBA, for which the median seed-adjusted z-score is inactive: -0.148.
The same measure for CCGUGUACCUGUUCACCAATT against CACNG7: inactive: -0.403; for CCCACUACUUUGCAAGUAATT against BLM: inactive: -0.0654; for ACAAUGUGGUCUACCGAUATT against SLCO3A1: inactive: -0.0387.
Regarding CCAUCUCCCUUGUGCUGCATT against NINJ1, the median seed-adjusted z-score was inactive: -0.061.
The same measure for GAACUUCACUUAGGACAUUTT against ATP6V1G1: inactive: 0.311; for GAGACGGACUCAGACAGAATT against SIGLEC10: inactive: 0.0542.
Consider CAACAUAUGGUACCGAGUATT against MEF2C, for which the median seed-adjusted z-score is inactive: -0.632.
The same measure for UAGGGAAGCUGAAAGUGCATT against OXER1: inactive: -0.471; for CUAUAGUGACCUAAACUAUTT against ACCN5: inactive: 0.227.
Turning to GCACGAAUGUUGAGUUCGATT against PTPRD, the median seed-adjusted z-score is inactive: 0.425.
As to CCAUGUCAGUGAUCAUUGUTT against CPNE1, the median seed-adjusted z-score was inactive: -0.0206.
As to GGAUAACACCUGCUUUUCATT against DUSP12, the median seed-adjusted z-score was inactive: -0.0123.
As for GUAUUUCUUGGAUUGGAUATT against SAR1B, the figure is inactive: 0.693; as for CCAACACCGACUACUUAGATT against ATG4C, inactive: -0.414; as for AGGUUUCAGUGGUUUGGAUTT against COL1A1, inactive: 0.
For the sequence GUAGCUGGGUGGAUCAGAATT against BPGM, the median seed-adjusted z-score is inactive: 0.408.
Consider GCAGUAUGCACUACUCUAATT against ATP11C, for which the median seed-adjusted z-score is inactive: 0.102.
Regarding CGAUCUCCAGUUUAGCGGATT against ZFP106, the median seed-adjusted z-score is inactive: 0.286.
The same measure for GAAAAUAUCCUGAUCAUAUTT against MC2R: inactive: 0.
Regarding CGCAAACAAGCACACCUUATT against ZNF501, the median seed-adjusted z-score is inactive: 0.19.
As to CCAGUGUAUGUUCUCCUUUTT against TRMT12, the median seed-adjusted z-score is inactive: 0.352.
The same measure for CCUUACUUCUGACAACAGATT against IL23R: inactive: 0.512; for GCAAAGCUAUUGCAUUGAATT against HSDL2: inactive: -0.0717; for CGAUAGAUAGUACAGGUAUTT against SP3: inactive: -0.0943.
As for GCACCGUCUGAUCAUCAAATT against DNAJC11, the figure is inactive: 0.148; as for GGAUUAUAUUCAUCGAAUUTT against DDX5, inactive: 0.891.
In the case of GGAACAACCAUACAGAUCATT against CDH20, the median seed-adjusted z-score was inactive: -0.397.
As to CAAAGAGACAAGUCCUAAATT against TTC15, the median seed-adjusted z-score is inactive: -0.235.
For the sequence GGAUUGAAGAUACUACAAATT against THOC1, the median seed-adjusted z-score is active: -3.04.
For the sequence GCCUUUGCUUGUGUAUUCATT against KRTAP5-7, the median seed-adjusted z-score was inactive: -0.279.
For the sequence GUCGGGAUCUCAGAGGAAATT against PTRF, the median seed-adjusted z-score is inactive: -0.0151.
With GGCAUCAAGUUGACCAUCATT against LCK, the median seed-adjusted z-score was inactive: 0.676.
As for GAACCAACUCGGAUAUUGUTT against MEF2A, the median seed-adjusted z-score is inactive: -0.0658.
In the case of GGAUCAUGGUUUACGUUUUTT against SLC13A1, the median seed-adjusted z-score is inactive: 0.183.
In the case of AGCCUUCAAUAGAUCUUCATT against ZNF562, the median seed-adjusted z-score is inactive: -0.0954.
As to GAAUGUAUCAGCUACCGAUTT against HYAL4, the median seed-adjusted z-score was inactive: -0.236.
Turning to CAAUUGGAGGGUUAGAUGATT against KLHL8, the median seed-adjusted z-score is inactive: -0.835.
AGAGAGCCGUGGAAUUCCATT against RAB5C: the median seed-adjusted z-score is inactive: -0.529.
For the sequence GCAUACCUCAGUUCCAAGATT against CDY2A, the median seed-adjusted z-score was inactive: 0.75.
Take CAUCAUCACCAAACUCAAATT against P2RX6: the median seed-adjusted z-score is inactive: -0.351.
As to CCCAGACGCAAGACAGUAATT against RBMX2, the median seed-adjusted z-score is inactive: -0.585.

The values above are taken from PubChem BioAssay AID1347426 (Functional Genomics Laboratory (NCATS/FGL), 2020).
